Some of the results follow.
compound: CNCc1ccc(-c2[nH]c3cc(F)cc4c3c2CCNC4=O)cc1 [rucaparib]; experiment: log2 fold change, soluble protein after heating vs DMSO (PISA); higher = thermal stabilisation; K562 cells, 10 uM, 30 min; active = over 0.2 and 3.5 SD of the protein, either way, in both replicates (recomputed)
Method in brief: (§1)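 K562 cells at 2×10^6 cells/mL were exposed to 10 μM compound for 30 min, then aliquots were heated for 3 min across 48°C-58°C, pooled, and extracted in PBS containing 0.5% NP-40 at 4°C. The supernatant after 21,000xg for 90 min was taken as soluble protein and measured by TMTpro 16plex LC-MS/MS with channel sums equalised. Thermal stability is reported relative to control samples, with values from duplicates. Fold changes are given on a log2 scale.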

Sequences of proteins named here, by UniProt entry; tags and fusion partners are left off. A change or cut given only in a name is not applied to a line headed by its entry.
UniProt Q9GZM8: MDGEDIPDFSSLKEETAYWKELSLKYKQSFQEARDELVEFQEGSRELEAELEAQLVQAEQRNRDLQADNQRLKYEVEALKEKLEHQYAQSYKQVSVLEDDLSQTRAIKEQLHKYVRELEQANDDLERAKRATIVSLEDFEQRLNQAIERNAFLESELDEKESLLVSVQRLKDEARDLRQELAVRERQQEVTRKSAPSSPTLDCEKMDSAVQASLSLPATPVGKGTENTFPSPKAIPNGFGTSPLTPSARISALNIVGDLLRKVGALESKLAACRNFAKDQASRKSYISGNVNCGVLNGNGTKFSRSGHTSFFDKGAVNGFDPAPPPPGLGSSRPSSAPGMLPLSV
UniProt Q6ZVX7: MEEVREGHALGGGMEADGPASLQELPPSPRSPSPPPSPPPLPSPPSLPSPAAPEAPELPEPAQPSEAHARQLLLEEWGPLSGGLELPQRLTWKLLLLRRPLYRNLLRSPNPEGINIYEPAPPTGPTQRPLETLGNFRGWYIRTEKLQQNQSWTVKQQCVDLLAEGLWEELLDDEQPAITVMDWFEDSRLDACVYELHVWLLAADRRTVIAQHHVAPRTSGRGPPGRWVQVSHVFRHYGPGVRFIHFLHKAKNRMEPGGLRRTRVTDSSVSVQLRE
UniProt Q02083: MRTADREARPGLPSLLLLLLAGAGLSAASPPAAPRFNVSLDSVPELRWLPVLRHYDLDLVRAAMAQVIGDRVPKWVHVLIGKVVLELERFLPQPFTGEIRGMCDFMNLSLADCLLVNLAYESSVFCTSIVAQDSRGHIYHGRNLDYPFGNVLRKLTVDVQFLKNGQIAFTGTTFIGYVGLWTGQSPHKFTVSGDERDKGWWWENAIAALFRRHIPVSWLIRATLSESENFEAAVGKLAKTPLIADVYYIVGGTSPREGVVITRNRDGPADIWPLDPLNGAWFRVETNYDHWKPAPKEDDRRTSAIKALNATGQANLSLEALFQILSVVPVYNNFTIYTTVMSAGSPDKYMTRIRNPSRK
UniProt Q9Y6Q9, whole entry, looked up: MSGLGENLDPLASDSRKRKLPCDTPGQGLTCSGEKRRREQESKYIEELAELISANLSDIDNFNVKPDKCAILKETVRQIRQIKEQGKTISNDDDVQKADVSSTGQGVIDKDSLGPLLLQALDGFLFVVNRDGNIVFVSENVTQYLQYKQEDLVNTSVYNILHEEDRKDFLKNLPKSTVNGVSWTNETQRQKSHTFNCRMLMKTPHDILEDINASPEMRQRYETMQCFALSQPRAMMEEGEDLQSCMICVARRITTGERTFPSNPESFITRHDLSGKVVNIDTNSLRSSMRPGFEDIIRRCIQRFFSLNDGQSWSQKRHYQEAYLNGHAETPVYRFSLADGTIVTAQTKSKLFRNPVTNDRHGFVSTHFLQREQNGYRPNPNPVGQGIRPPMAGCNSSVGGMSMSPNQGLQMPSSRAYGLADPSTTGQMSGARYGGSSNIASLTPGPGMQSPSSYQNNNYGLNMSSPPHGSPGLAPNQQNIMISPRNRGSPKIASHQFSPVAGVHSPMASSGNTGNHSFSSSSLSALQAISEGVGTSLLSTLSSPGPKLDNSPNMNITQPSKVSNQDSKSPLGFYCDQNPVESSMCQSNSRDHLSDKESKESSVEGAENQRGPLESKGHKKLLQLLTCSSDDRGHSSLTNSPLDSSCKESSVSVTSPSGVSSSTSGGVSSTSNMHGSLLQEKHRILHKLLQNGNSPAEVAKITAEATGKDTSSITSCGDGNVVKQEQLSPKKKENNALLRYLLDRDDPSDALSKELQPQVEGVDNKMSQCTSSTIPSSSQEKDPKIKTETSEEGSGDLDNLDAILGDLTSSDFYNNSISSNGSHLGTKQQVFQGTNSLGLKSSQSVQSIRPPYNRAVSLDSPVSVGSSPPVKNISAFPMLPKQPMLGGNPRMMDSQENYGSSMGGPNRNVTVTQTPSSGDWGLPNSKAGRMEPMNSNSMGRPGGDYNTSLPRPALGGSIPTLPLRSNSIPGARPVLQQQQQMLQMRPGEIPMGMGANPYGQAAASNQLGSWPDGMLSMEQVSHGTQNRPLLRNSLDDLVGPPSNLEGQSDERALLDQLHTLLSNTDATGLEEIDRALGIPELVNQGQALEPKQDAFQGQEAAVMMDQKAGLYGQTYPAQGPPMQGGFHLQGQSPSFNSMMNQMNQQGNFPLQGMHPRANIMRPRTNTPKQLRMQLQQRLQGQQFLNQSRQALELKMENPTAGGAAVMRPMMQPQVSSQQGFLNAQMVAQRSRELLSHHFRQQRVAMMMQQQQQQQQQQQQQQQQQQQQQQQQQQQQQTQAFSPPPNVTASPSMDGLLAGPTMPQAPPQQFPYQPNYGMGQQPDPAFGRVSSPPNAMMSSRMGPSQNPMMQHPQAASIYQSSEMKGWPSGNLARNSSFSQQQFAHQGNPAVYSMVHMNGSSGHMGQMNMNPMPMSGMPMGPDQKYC
NA, A0A494C071, UniProt A0A494C071, whole entry, looked up: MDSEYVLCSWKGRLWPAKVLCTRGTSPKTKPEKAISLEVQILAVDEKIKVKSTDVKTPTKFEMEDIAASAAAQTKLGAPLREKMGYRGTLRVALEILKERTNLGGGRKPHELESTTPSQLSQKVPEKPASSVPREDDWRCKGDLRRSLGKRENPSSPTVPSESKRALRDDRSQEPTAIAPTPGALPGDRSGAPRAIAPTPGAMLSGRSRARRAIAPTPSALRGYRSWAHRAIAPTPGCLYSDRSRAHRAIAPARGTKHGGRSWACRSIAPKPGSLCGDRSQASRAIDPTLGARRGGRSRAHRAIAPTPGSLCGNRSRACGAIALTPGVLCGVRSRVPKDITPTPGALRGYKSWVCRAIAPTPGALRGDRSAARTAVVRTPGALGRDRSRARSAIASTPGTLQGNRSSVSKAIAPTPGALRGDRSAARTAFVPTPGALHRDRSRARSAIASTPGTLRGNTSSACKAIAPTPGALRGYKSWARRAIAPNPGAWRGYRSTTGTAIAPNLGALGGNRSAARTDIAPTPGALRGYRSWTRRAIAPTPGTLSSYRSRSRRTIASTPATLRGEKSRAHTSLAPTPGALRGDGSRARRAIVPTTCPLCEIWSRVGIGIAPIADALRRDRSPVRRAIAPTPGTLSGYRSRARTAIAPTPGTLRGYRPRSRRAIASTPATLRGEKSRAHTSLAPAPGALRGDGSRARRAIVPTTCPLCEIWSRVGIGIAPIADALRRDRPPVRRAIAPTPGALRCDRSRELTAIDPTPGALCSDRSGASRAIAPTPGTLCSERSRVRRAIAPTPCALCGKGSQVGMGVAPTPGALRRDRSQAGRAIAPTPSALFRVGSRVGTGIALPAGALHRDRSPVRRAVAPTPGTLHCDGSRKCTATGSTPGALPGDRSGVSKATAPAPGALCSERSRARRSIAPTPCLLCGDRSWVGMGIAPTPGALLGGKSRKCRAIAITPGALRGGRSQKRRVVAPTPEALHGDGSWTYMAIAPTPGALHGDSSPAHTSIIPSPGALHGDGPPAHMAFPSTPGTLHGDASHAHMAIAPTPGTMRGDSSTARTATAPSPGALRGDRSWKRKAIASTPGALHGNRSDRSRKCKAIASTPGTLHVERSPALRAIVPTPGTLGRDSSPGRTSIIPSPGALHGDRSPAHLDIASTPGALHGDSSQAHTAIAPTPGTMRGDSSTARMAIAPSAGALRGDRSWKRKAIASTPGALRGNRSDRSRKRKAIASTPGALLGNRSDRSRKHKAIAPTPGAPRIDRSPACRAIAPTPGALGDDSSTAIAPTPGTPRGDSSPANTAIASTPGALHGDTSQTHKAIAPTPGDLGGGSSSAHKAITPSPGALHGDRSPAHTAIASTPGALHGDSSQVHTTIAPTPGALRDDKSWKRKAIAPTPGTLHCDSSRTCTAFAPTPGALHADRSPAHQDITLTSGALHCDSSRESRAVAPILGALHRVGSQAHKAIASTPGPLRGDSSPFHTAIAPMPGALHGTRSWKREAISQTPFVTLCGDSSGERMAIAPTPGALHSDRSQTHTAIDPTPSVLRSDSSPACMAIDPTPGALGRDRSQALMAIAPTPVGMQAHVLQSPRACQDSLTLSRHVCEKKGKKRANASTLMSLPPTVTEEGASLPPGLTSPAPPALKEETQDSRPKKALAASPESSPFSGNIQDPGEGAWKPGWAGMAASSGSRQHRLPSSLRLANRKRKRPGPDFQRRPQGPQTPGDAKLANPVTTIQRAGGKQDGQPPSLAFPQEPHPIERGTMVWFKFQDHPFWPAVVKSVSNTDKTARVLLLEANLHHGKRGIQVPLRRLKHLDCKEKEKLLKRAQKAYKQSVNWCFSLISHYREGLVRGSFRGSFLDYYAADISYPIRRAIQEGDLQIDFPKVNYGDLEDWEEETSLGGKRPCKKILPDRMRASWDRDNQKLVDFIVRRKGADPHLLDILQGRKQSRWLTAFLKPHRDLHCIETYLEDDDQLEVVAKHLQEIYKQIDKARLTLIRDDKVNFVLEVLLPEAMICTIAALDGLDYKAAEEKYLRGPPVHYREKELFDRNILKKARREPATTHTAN
UniProt Q14686, whole entry, looked up: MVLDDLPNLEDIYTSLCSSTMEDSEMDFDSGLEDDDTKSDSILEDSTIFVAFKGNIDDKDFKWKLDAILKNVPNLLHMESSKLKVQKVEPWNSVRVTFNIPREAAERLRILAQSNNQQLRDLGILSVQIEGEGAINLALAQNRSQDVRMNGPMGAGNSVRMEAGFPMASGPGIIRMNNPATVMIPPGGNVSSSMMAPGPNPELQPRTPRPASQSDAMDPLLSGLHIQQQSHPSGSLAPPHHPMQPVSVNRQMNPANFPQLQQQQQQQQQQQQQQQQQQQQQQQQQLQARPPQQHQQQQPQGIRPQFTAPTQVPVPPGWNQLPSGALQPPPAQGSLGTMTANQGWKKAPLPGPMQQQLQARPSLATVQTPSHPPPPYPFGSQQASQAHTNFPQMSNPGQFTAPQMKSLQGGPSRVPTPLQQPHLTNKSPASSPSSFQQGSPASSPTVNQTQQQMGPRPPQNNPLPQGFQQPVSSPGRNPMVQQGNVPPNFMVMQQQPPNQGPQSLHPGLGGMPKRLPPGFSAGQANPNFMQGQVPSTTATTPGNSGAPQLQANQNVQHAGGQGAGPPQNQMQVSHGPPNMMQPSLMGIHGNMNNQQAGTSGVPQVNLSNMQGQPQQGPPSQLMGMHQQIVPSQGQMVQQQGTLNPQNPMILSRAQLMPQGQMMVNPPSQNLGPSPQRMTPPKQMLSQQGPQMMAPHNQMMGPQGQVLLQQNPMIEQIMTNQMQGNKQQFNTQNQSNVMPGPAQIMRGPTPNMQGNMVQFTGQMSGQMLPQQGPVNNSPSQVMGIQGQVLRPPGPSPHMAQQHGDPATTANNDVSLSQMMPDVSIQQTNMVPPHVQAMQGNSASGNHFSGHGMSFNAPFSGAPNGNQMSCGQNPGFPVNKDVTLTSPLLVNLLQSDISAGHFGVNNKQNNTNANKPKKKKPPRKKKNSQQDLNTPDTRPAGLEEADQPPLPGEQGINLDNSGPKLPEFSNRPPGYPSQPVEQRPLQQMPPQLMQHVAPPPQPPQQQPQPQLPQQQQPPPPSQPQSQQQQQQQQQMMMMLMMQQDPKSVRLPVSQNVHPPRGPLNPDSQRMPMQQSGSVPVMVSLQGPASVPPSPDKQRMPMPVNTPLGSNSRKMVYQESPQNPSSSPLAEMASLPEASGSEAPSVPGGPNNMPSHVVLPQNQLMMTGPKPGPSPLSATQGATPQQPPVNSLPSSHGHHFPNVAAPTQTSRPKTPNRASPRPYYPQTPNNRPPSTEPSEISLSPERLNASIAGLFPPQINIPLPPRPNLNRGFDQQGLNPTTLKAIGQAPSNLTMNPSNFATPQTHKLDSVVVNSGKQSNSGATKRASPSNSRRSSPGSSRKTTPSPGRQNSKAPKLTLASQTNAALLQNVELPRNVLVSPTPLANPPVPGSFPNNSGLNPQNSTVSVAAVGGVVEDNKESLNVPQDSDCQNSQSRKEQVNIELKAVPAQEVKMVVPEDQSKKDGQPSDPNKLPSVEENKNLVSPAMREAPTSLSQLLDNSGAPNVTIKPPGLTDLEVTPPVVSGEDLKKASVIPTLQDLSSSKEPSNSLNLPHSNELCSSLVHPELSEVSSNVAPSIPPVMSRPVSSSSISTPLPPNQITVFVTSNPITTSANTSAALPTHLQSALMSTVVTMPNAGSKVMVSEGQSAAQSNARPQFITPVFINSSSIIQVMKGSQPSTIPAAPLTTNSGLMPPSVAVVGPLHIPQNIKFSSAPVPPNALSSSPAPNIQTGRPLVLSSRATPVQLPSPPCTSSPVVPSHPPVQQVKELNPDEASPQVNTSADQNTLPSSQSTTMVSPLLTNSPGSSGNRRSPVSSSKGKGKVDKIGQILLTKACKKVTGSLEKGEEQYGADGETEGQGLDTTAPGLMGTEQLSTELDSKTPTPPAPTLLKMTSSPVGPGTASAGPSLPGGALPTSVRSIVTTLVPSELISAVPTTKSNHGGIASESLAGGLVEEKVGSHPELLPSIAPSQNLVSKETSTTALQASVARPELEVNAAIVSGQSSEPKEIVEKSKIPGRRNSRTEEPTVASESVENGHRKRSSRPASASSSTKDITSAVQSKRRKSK
UniProt O75438, whole entry, looked up: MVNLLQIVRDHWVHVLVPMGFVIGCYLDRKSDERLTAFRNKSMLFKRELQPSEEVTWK

Row | Target | log2 fold change
1 | NDUFAF7 (UniProt Q7L592) | inactive: 0.055
2 | NDEL1 isoform 2 (UniProt Q9GZM8) | inactive: 0.212
3 | NCAPH2 isoform 4 (UniProt Q6IBW4) | inactive: 0.178
4 | NBEAL2 (UniProt Q6ZNJ1) | inactive: 0.031
5 | NA (UniProt B2RBV5) | inactive: -0.16
6 | NCCRP1 (UniProt Q6ZVX7) | inactive: -0.191
7 | NAAA (UniProt Q02083) | inactive: -0.071
8 | NCOA3 (UniProt Q9Y6Q9) | inactive: -0.053
9 | NAA40 (UniProt Q86UY6) | inactive: 0.313
10 | NAP1L1 (UniProt B7Z9C2) | inactive: -0.041
11 | NA, A0A494C071 | inactive: -0.359
12 | MYSM1 (UniProt Q5VVJ2) | inactive: 0.003
13 | NCOA1 (UniProt Q15788) | inactive: -0.093
14 | NDUFAB1 (UniProt O14561) | inactive: -0.402
15 | NCOA6 (UniProt Q14686) | inactive: 0.068
16 | NDUFC1 (UniProt O43677) | inactive: -0.128
17 | NEB isoform 3 (UniProt P20929) | inactive: 0.007
18 | NDUFB1 (UniProt O75438) | inactive: -0.035

compound: CNc1nc(-c2ccc3c(N)n[nH]c3c2)cc(N2C[C@@H](C(=O)NC3CCCCC3)CC[C@H]2C)n1; experiment: as above
Method in brief: as §1

Row | Target | log2 fold change
19 | NA, A0A1W2PSA9 | inactive: -0.107
20 | NDEL1 isoform 2 (UniProt Q9GZM8) | inactive: -0.071
21 | NEK1 isoform 3 (UniProt Q96PY6) | inactive: -0.333
22 | NCCRP1 (UniProt Q6ZVX7) | inactive: 0.286
23 | NAP1L1 (UniProt B7Z9C2) | inactive: -0.706
24 | NA, A0A494C071 | inactive: -0.062
25 | NCOA1 (UniProt Q15788) | inactive: 0.062
26 | MYOF (UniProt Q9NZM1) | inactive: 0.06
27 | NBDY, A0A0U1RRE5 | inactive: 0.019
28 | NABP2 (UniProt Q9BQ15) | inactive: -0.032
29 | NEB isoform 3 (UniProt P20929) | inactive: 0.022
30 | NCKAP5L (UniProt Q9HCH0) | inactive: 0.018

compound: COC(=O)N[C@@H](C)CNc1nccc(-c2cn(C(C)C)nc2-c2cc(Cl)cc(NS(C)(=O)=O)c2F)n1 [encorafenib]; experiment: as above
Method in brief: as §1

Row | Target | log2 fold change
31 | NDUFAF7 (UniProt Q7L592) | inactive: 0.069
32 | NDEL1 isoform 2 (UniProt Q9GZM8) | inactive: -0.2
33 | NCAPH2 isoform 4 (UniProt Q6IBW4) | inactive: 0.083
34 | NBEAL2 (UniProt Q6ZNJ1) | inactive: 0.155
35 | NA (UniProt B2RBV5) | inactive: -0.09
36 | NCCRP1 (UniProt Q6ZVX7) | inactive: -0.347
37 | NAAA (UniProt Q02083) | inactive: -0.11
38 | NCOA3 (UniProt Q9Y6Q9) | inactive: -0.064
39 | NAA40 (UniProt Q86UY6) | inactive: -0.013
40 | NAP1L1 (UniProt B7Z9C2) | inactive: -0.114
41 | NA, A0A494C071 | inactive: 0.027
42 | MYSM1 (UniProt Q5VVJ2) | inactive: 0.13
43 | NCOA1 (UniProt Q15788) | inactive: -0.152
44 | NDUFAB1 (UniProt O14561) | inactive: 0.152
45 | NCOA6 (UniProt Q14686) | inactive: 0.114
46 | NDUFC1 (UniProt O43677) | inactive: 0.041
47 | NEB isoform 3 (UniProt P20929) | inactive: -0.019
48 | NDUFB1 (UniProt O75438) | inactive: 0.001

compound: COC(=O)[C@H](CCSC)NC(=O)C1=C(C=C(C=C1)NC[C@H](CS)N)C2=CC=CC=C2; experiment: as above
Method in brief: as §1

Row | Target | log2 fold change
49 | NDUFAF7 (UniProt Q7L592) | inactive: -0.025
50 | NDUFA7 (UniProt M0R0N0) | inactive: 0.093
51 | NDUFV1 (UniProt E9PJL9) | inactive: -0.032
52 | NDEL1 isoform 2 (UniProt Q9GZM8) | inactive: 0.018
53 | NEK1 isoform 3 (UniProt Q96PY6) | inactive: -0.23
54 | NCCRP1 (UniProt Q6ZVX7) | inactive: -0.131
55 | NCOA3 (UniProt Q9Y6Q9) | inactive: 0.013
56 | NAA40 (UniProt Q86UY6) | inactive: -0.208
57 | NAP1L1 (UniProt B7Z9C2) | inactive: -0.007
58 | NA, A0A494C071 | inactive: 0.124
59 | NDST2 (UniProt P52849) | inactive: -0.304
60 | NCOA1 (UniProt Q15788) | inactive: 0.096
61 | NCKIPSD (UniProt Q9NZQ3) | inactive: -0.204
62 | NDUFAB1 (UniProt O14561) | inactive: 0.125
63 | NCOA6 (UniProt Q14686) | inactive: 0.095
64 | NEB isoform 3 (UniProt P20929) | inactive: 0.06
65 | NCKAP5L (UniProt Q9HCH0) | inactive: -0.08
66 | NDUFB1 (UniProt O75438) | inactive: 0.034

— the supplement of paper PMC10849652
